The text below walks through data of article PMC4202161.

Amino acid sequences for entries named in this document (tags omitted). Residues count along the entry.
UniProt P35869, residues 11-848: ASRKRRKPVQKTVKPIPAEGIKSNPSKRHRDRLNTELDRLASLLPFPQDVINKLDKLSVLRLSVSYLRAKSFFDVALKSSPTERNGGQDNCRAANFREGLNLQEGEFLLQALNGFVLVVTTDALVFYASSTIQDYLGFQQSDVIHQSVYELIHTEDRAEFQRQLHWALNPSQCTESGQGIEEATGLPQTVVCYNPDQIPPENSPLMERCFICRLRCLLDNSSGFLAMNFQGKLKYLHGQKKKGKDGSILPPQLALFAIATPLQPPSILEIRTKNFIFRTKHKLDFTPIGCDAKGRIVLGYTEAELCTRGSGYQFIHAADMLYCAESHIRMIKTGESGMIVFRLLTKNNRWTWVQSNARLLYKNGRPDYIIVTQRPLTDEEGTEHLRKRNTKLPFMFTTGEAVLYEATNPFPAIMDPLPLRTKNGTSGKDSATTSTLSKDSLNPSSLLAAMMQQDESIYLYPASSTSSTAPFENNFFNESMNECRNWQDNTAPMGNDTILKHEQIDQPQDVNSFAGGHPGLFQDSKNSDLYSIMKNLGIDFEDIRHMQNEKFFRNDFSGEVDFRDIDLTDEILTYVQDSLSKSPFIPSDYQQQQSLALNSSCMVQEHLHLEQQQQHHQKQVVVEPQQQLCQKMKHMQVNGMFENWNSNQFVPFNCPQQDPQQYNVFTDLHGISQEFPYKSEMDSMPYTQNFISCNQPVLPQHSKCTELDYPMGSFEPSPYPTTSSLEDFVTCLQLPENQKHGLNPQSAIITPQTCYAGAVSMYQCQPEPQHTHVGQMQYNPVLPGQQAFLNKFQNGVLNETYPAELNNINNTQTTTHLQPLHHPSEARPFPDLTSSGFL

The assay concerns the target T1, Calpain-10 (human (endogenous in AGS)) (UniProt Q9HC96).
T1 sequence: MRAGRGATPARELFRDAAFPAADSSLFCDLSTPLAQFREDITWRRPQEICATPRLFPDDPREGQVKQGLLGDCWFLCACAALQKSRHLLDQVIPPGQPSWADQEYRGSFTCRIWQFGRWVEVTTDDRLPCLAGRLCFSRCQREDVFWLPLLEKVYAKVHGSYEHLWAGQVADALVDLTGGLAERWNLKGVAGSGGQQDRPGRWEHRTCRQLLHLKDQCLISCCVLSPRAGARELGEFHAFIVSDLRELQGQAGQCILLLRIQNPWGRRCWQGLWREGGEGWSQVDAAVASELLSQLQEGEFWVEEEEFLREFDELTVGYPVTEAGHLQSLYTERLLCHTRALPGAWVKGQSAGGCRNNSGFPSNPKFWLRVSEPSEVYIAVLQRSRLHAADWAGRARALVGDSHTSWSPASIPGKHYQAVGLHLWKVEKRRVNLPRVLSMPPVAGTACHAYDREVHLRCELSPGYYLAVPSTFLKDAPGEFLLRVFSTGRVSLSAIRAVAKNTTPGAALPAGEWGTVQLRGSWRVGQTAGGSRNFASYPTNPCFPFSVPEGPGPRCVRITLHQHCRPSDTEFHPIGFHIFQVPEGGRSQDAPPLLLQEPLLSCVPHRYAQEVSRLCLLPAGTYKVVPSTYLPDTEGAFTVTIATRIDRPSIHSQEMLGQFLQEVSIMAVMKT
Briefly: co-IP; AGS cells treated with or without Biseugenol (40 μM) for 4, 8 or 10 h; Calpain-10 immunoprecipitated by anti-Calpain-10 antibody from cell lysates; immunoblot probed for AhR and Calpain-10. For orientation: Immunoblotting shows a protein as a band on a membrane.

Results are given in words; binding and its absence hold for the method and conditions named. Binding seen in cells or lysates may run through a third protein. Some entries that bind do so weakly or less than the wild type.

Regarding “Aryl hydrocarbon receptor (from UniProt P35869 11-848)”, the binding result was “binds”.
